Values are relative to the signal before dosing, not to a vehicle control; the signal also falls without drug.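 Labels refer to human fibroblasts, largely primary: uterine (C12385, HUF), lung (H6013), bone (Hs27A), adrenal (HADF), skin (WS1), plus mammary HMF and breast cancer-associated Hs343T. Cancer lines are basal-like or mesenchymal-like triple-negative breast cancer. The paper counts as hits responses shifting over 3x the replicate standard deviation. The tissue of the other fibroblasts is not given here.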
Tested on: MDAMB231
Assay: relative JC-1 red fluorescence (viability) vs pre-drug, coculture with fibroblast (fraction); higher = more viable cancer cells
Details: 100 µM
Protocol: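 JC-1 labelled TNBC cells cocultured 1:1 (1,500 cells each) with CellTrace Violet stained primary or stromal fibroblasts in 384-well plates in FluoroBrite medium, treated with one of 42 anticancer drugs at 0.1, 1, 10 or 100 uM. JC-1 red fluorescence (mitochondrial integrity in cancer cells only) was read by plate reader every 8 h for 72 h. Values are normalised to each well's pre-drug value. The stock of one drug was tenfold lower, so its dose labels may be too high.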

CC(=O)c1c(C)c2cnc(Nc3ccc(N4CCNCC4)cn3)nc2n(C2CCCC2)c1=O [Palbociclib]
relative JC-1 red fluorescence
Details	8 h	16 h	24 h	32 h	40 h	48 h	56 h	64 h	72 h
coculture fibroblast: C12385	0.396	0.25	0.305	0.197	0.134	0.111	0.0857	0.0843	0.0652
coculture fibroblast: H6013	0.412	0.262	0.211	0.178	0.151	0.144	0.119	0.107	0.0806
coculture fibroblast: H6019	0.4187	0.21	0.228	0.147	0.111	0.0947	0.0711	0.0658	0.0482
coculture fibroblast: H6076	0.7564	0.778	0.829	0.841	0.937	0.835	0.689	0.603	0.547
coculture fibroblast: H6231	0.884	0.813	0.747	0.93	0.908	0.808	0.667	0.6	0.503
coculture fibroblast: HADF	0.444	0.336	0.268	0.227	0.202	0.196	0.163	0.152	0.118
coculture fibroblast: HCFa	0.626	0.353	0.271	0.227	0.2	0.188	0.165	0.147	0.12
coculture fibroblast: HCPF	0.772	0.711	0.859	0.804	0.893	0.903	0.772	0.699	0.604
coculture fibroblast: HHSteC	0.546	0.31	0.254	0.213	0.185	0.175	0.145	0.132	0.105
coculture fibroblast: HMF	0.755	0.908	0.814	0.78	0.86	0.846	0.714	0.64	0.571
coculture fibroblast: HPFa	0.744	0.402	0.304	0.249	0.227	0.211	0.176	0.16	0.132
coculture fibroblast: HUF	0.562	0.362	0.4015	0.281	0.233	0.212	0.182	0.171	0.153
coculture fibroblast: Hs5	0.844	0.888	0.802	0.9864	0.893	0.7996	0.668	0.562	0.483
coculture fibroblast: Hs27A	0.483	0.304	0.255	0.223	0.197	0.192	0.165	0.157	0.126
coculture fibroblast: Hs343T	0.876	0.863	0.723	0.7336	0.961	0.85	0.6803	0.5914	0.469
coculture fibroblast: WS1	0.37	0.222	0.263	0.168	0.135	0.117	0.0912	0.0906	0.0725

— the supplement of paper PMC6078165
